# Measured values published in the supplement of paper PMC3334620.
# Whole data set: some 33,000 sequences, median “E-score (-0.5 to 0.5)” near -0.0014, cut for the highest 2% near 0.25. Some of the results follow.
# Target: T1, Cad1 (UniProt P24813)
# T1 sequence: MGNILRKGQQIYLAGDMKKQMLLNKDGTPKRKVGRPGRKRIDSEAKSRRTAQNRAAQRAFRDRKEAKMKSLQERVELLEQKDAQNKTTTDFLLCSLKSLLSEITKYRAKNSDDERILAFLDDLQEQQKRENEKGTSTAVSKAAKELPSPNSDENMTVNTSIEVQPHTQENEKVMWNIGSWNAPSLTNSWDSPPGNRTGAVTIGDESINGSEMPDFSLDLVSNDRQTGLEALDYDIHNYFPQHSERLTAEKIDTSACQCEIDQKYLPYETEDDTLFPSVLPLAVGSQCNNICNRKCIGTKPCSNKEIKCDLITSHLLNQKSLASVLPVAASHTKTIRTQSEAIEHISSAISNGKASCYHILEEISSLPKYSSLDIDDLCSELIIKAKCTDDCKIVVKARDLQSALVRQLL
# Assay: PBM E-score (8-mer binding enrichment) (E-score (-0.5 to 0.5)); higher = stronger / more preferred TF binding
# Details: protein concentration: 100 nM; construct: GST-full length
# Procedure, shortened: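 E-scores (a modified Wilcoxon-Mann-Whitney statistic) were assigned by the Universal PBM Analysis Suite to every ungapped eight-base word pooled with its reverse complement. The input came from universal all-10-mer Agilent arrays made double-stranded by primer extension and probed with GST-tagged yeast transcription factors at about 100-200 nM. Fluorescent anti-GST detected bound protein, and masliner normalised the scans.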
row,Sequence,PBM E-score
1,AACCCACT,0.129
2,CTTGGAAA,-0.0032
3,CCCGCTTC,-0.132
4,GTTAAAAA,0.0639
5,ATCAATTC,-0.026
6,ACCAGCCT,-0.0343
7,GCTTGTCC,0.0808
8,CCAGCGAG,-0.105
9,AGCCGGAG,0.0999
10,AGGATCGA,-0.0677
11,ACAGGCAT,-0.0751
12,GTATACAC,0.173
13,CCTGAACC,0.0977
14,GAAGGCAC,-0.0389
15,GGCAGCCC,-0.234
16,CCATGTCA,-0.167
17,CCTTGGAC,-0.214
18,CTTAGTGC,0.0405
19,GGGGACAC,-0.24
20,AGCAAGCG,0.0981
21,AAAACTTT,-0.0666
22,AACGGCCA,-0.0196
23,CACTGGTC,-0.155
24,AAATGACC,-0.0306
25,GCAACGCC,0.052

row,Sequence,PBM E-score
1,ATATTAAG,0.115
2,AGTTGCTC,-0.063
3,GCGTCAAA,0.0749
4,CGGTTACC,-0.0522
5,ACACGCGT,0.258
6,AGTAGCGG,0.164
7,GAATGCCA,-0.132
8,CGAAACGC,-0.103
9,GGCGGGGA,0.201
10,CCGATCTA,-0.0751
11,ACAGTGGT,-0.0157
12,GGCCTAAA,-0.086
13,ACCAGTGG,-0.19
14,ACAGACAG,0.0659
15,GACGTCGA,0.166
16,ACTGTCGA,0.0753
17,ATCCTTTC,-0.0427
18,ATCCGAGA,0.144
19,CACGACCA,-0.00283
20,CTACCTGC,0.0404
21,AGGTATAG,-0.0854
22,GCGTAGGA,-0.0794
23,CTGAACAC,0.195
24,AGCCATCC,-0.227
25,AGGCCGTC,-0.111

row,Sequence,PBM E-score
1,CGCCCAGC,0.0197
2,GAGTACCC,-0.154
3,AGCTGGGA,-0.204
4,CACAGCCA,-0.153
5,TTGCCAAA,0.0193
6,AACCCTGA,0.106
7,TACAAACA,0.239
8,CATGCCTA,-0.181
9,CCCTCGCC,-0.161
10,AACGCCAG,-0.0006
11,ATCGATTG,0.299
12,GCAAGGGC,-0.125
13,CCGGCACC,0.0908
14,CTTATGCC,0.0332
15,CACGCGCG,0.104
16,GTGGCAGA,-0.192
17,ATGTGCCG,-0.0218
18,ACAAGAAG,-0.0471
19,ATAAGAGG,0.162
20,CATCCCGG,0.0408
21,ACCTGTAG,-0.201
22,GAACATGA,-0.00823
23,CCGCTTAC,0.184
24,CGAAATTA,0.167
25,CGAATACC,-0.104

row,Sequence,PBM E-score
1,AGATCCAA,-0.142
2,TCGCGCGA,0.308
3,AGAACTAG,-0.146
4,ATTGATCC,0.0172
5,TAACGTTA,0.0543
6,CGCAGAAG,0.116
7,ATACCGGA,-0.0343
8,AGGCCGGG,-0.291
9,AGATCTCC,-0.0869
10,GGGTCGAA,-0.202
11,CAAGTGCG,-0.0542
12,ATGTGACA,0.281
13,CCCAATCA,-0.164
14,CGTAGGTA,-0.0215
15,CTATCGCA,0.0921
16,GCCTTGTA,-0.106
17,CTGTGCTA,-0.00142
18,AAACTCAC,-0.0266
19,ACGACTGC,-0.139
20,GAGCCACA,-0.0272
21,ATAGATTG,0.0192
22,CGCCAAAG,-0.227
23,CAACACGC,0.0436
24,GCTACGGA,-0.204
25,CGCCCATC,-0.198

# A stretch from further up:
row,Sequence,PBM E-score
6,CGCAGAAG,0.116
7,ATACCGGA,-0.0343
8,AGGCCGGG,-0.291
9,AGATCTCC,-0.0869
10,GGGTCGAA,-0.202
11,CAAGTGCG,-0.0542

# The list continues:

row,Sequence,PBM E-score
1,CGTGAGTC,-0.223
2,ACGCCTAA,-0.0311
3,ACCCCCAA,-0.153
4,AGACTTCG,-0.0445
5,CGCGTACG,0.178
6,ACTAATAA,0.226
7,AAACCTCC,-0.193
8,AGTTCTGC,-0.0672
9,AGACCTTG,-0.157
10,CGATCTAG,-0.126
11,ACTCCGAT,-0.0617
12,ATGGGCTC,-0.063
13,CTAATCCC,0.0234
14,CAGGCTGG,-0.25
15,ATCCCGGC,-0.0571
16,CTATCGGA,0.0685
17,AAGCACAC,-0.0239
18,CTAGACCC,-0.162
19,TGTTTCAA,0.0302
20,ATTTCCGA,0.0803
21,GCAATATA,0.179
22,AAGTCTGC,0.00888
23,AAAGCGCG,0.0998
24,CTGGAGTA,0.00683
25,CTGTGCGA,-0.0444

row,Sequence,PBM E-score
1,AAACAGCA,0.0962
2,AACAAAGA,0.0238
3,AACGTGAA,-0.0752
4,GGTCATAC,-0.0427
5,GCCCCTCA,-0.286
6,ATCAGCGA,-0.0209
7,CTTATGGA,-0.156
8,AATAGCTC,-0.322
9,ATCGATCG,0.188
10,ATGATGGA,-0.00401
11,CGACACGC,0.11
12,CAAGCTTC,-0.198
13,ACGGAACA,0.0866
14,ACCGGCTG,-0.193
15,GCGACGTA,-0.0212
16,ACCGCGAA,0.166
17,CATACCCC,-0.217
18,GTTATCAA,0.129
19,CTTACTGC,0.0223
20,CCAATAAC,0.123
21,ACGGATGC,0.0923
22,TGGATCAA,-0.0518
23,ACCCCCGA,-0.293
24,GCATACCA,0.0867
25,ACCCATGA,-0.0855

row,Sequence,PBM E-score
1,GGACGTAA,-0.0957
2,GGGAACTA,-0.0297
3,CACGGAGC,-0.118
4,CCAAATCA,-0.041
5,GAGCCCGC,-0.178
6,ATCGCATC,0.0114
7,GGCTCCAA,0.0549
8,AGAGTGGC,-0.00676
9,GATGAAGA,-0.109
10,ATAGACCC,0.0282
11,CAGTCGAC,0.188
12,AGTCTGTA,-0.174
13,AAACTAAA,0.141
14,ACAGCTAC,-0.0972
15,CTAATGTA,0.0718
16,GAAGAAAC,-0.0929
17,GGCTAACC,-0.0801
18,GCTCGTCA,-0.112
19,TGTAAACA,0.00733
20,CATCGCTA,0.135
21,CCGGAAAG,0.101
22,ATAACGCA,0.0718
23,GTAGGTAA,0.0138
24,TAACCACA,-0.117
25,ACGGTCAT,0.061

row,Sequence,PBM E-score
1,CGGGAAAG,-0.163
2,ACATGTAC,-0.0258
3,CGCATTTC,0.151
4,CTCTGACC,-0.159
5,CTTCTGTC,-0.0626
6,AGTAGACG,-0.00986
7,ACGCTATC,-0.00432
8,AATACTAC,0.202
9,CCTCCGTC,-0.158
10,GAAGTGTA,-0.155
11,CCCAGGAC,-0.299
12,GATTCCAA,-0.00691
13,GCGTGCCA,0.0968
14,ATACTATC,0.0513
15,TATGACCA,0.0897
16,CGTGTAAG,0.108
17,ACAGGAGC,0.0454
18,CTGTTTTC,0.0989
19,AACCTCTA,-0.12
20,TGTCCGAA,0.266
21,AGGTTGAG,-0.168
22,ATAATGAC,-0.119
23,CTGCGCCA,0.00034
24,AACTTCGC,0.149
25,CTTACTCA,0.208

row,Sequence,PBM E-score
1,AGCTCAAT,0.033
2,AGTAGAGC,-0.225
3,CCAGCAGG,-0.188
4,GTGCGGTA,0.121
5,AGGTCTGC,-0.0819
6,ATAGAAAC,-0.00162
7,AACGTATC,-0.0638
8,CCGGTACC,-0.181
9,AACTGGAG,-0.162
10,GTTTAAAC,0.238
11,ACAGGACG,-0.0894
12,GTAAGGAC,-0.19
13,GTAACGGA,0.223
14,AAGAGCTT,-0.0311
15,AATACATG,0.0416
16,CGATATTC,0.173
17,ACCTCTAA,-0.14
18,AGGCTGGG,-0.182
19,ACGACCAG,0.0402

# Retrieved one by one from the entries so far, five records:
row,Sequence,PBM E-score
4,CCAAATCA,-0.041
25,CTGTGCGA,-0.0444
17,CATACCCC,-0.217
24,AACTTCGC,0.149
12,GTATACAC,0.173
